Test system: HepG2 cells
Test: BMX-L1000 gene expression, differentially expressed genes
Type: cell-based
Conditions: BMX (1 μM) vs DMSO control, 1.5-fold change, p-value<0.05
Description: Indirect process: CLUE calculated the connectivity score of shRNA HDAC8 among their one million profiles and ordered the similarity to opposite compounds as well as gene perturbations. The criteria were filtered above 90 positive scores and collected each instance targeted-genes as shRNA HDAC8 regulators in biological function. Input this genes list in CPDB platform for enrichment analysis to obtain clear pathways information. Direct process: Based on BMX-L1000 gene expression data, both up-regulation and down-regulation gene list which respond to the drug biological function in HepG2 cells. BMX (1 μM) compared to DMSO control to define the significant differential expression genes (DEGs) according to ±1.5 fold change, p-value<0.05. […] To narrow down the prioritized pathways, we interested two results and selected the common element.
To explore possible mechanisms of HDAC8 inhibitor and gene involvement, we used Connectivity map (C-Map) and the Library of Integrated Network-Based Cellular Signatures Unified Environment (CLUE) systemic database (https://clue.io/) and ConsensusPathDB (CPDB) platform (http://cpdb.molgen.mpg.de/) for the comprehensive mechanism analysis. […] Next, we analyzed the HDAC8 inhibition function through an indirective approach, pattern matching algorithm of the CLUE platform. […]

COc1ccc(COc2c(/C=C/C(=O)NO)ccc(OC)c2CC=C(C)C)cc1 [BMX, (E)-2-(4-Methoxybenzyloxy)-3-prenyl-4-methoxy-N-hydroxycinamide]
significant differentially expressed genes, down-regulation: 900
significant differentially expressed genes, up-regulation: 1583

From US11980594B2, “Composition and method for treating a drug-resistant cancer” (NOVELWISE PHARMACEUTICAL CORPORATION, priority 2021, dated 2024)
